Measurements reported in PubChem BioAssay AID434931 (National Center for Advancing Translational Sciences (NCATS), 2010).
The inconclusive results got no clear call from the source; some entries with a clear call stand among them for comparison. Potencies of inconclusive entries are doubtful fits and often do not repeat. The source made the active and inactive calls. Calls follow the shape of the dose curve; as a rule, active = well fitted inhibition curve with a large enough effect; inconclusive = small, poorly fitted or top-dose-only effect, or another doubt; inactive = no such curve, though single readings can be large or run the other way.

Protein sequences, listed by entry. Tags and fused reporters are not part of them. Lines headed by an entry give the natural chain unless they say otherwise; changes in a name come on top.
UniProt Q6W5P4: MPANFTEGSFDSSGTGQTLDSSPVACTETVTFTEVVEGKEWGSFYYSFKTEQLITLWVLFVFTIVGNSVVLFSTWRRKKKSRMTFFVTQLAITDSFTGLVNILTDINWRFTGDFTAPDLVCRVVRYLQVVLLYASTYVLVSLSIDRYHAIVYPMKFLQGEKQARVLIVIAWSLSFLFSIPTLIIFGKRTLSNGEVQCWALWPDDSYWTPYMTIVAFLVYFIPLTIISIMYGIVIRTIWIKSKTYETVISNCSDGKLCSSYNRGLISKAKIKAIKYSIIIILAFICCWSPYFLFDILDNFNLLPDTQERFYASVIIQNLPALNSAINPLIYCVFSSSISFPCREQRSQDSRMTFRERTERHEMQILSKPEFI

Target: Neuropeptide S receptor (Homo sapiens) (UniProt Q6W5P4)
Experiment: Confirmation Concentration-Response Assay for Antagonists of the Neuropeptide S Receptor: Robust Characterization of Calcium Signal Transduction
Settings: CHO-NPSR cells, NPS-induced calcium fluorescence (FDSS)
Source text: NIH Chemical Genomics Center [NCGC] NIH Molecular Libraries Probe Production centers Network [MLPCN] MLPCN Grant: X01-DA026210-01 Assay Submitter (PI): Heilig, Markus Alexander NCGC Assay Overview: Neuropeptide S receptor (NPSR), previously known as GPR154, is a recently de-orphanized G protein coupled receptor. Its endogenous ligand is the 20 amino acids peptide Neuropeptide S (NPS). […] NPS and its receptor are found in various tissues. Specifically they are highly expressed in brain areas that have been implicated in modulation of arousal, stress and anxiety. Central administration of NPS in mice produces an unusual profile of activity by inducing wakefulness and arousal, while at the same time suppressing anxiety. Therefore, NPSR may represent a novel drug target for the treatment of sleep and anxiety disorders. To identify NPSR antagonists, we developed a cell-based assay with transfected NPS receptor. NPS can stimulate the production of cAMP as well as release intracellular calcium in Chinese hamster ovary cells stably expressing NPS receptor. This change in intracellular calcium can be detected using a calcium indicator dye on a calcium imaging plate reader system (FDSS). This particular assay uses a high density of sampling across concentration-response space to establish more confidence estimates of potency.
NCGC Assay Protocol Summary: A Chinese hamster ovary (CHO) cell line stably expressing the NPS receptor (CHO-NPSR) was obtained from Dr. Heilig lab at NIAAA and maintained in F-12 Kaighn's media (Invitrogen, Carlsbad, CA, 21127) supplemented with 10 % FBS, 100 units/ml penicillin, 100 ug/ml streptomycin and 250 ug/ml geneticin at 37C, 5% CO2 in a humidified atmosphere. Before the assay, aliquots of cells were frozen and stored at -135C. The assay was performed on a FDSS-7000 kinetic plate reader in 1536-well format. For both agonist (1-220s) and antagonist (221-400s) phases, the maximums of kinetic fluorescence responses were converted separately into text files using the instrument's software data export utility. Data for agonist response were normalized to the controls for basal activity (DMSO only) and 100% activation (NPS). […] AC50 values were determined from concentration-response data modeled with the standard Hill equation. NPS 1536-well FDSS assay protocol: (1) Frozen CHO-NPSR cells were thaw, washed once with fresh media and resuspended in F-12 Kaighn's media supplemented with 10 % FBS, 100 units/ml penicillin and 100 ug/ml streptomycin. Cells were plated at 3 ul/well (1200 cells) to black, clear-bottom, tissue-culture treated 1536-well plates, and then cultured at 37C, 5 % CO2 for 16 to 30 hours. (2) Add 3 ul of calcium dye (from High Performance PBX Calcium Assay Kit, BD Biosciences). The calcium dye was prepared according to the manufactory's instruction. (3) Incubation at 37C, 5 % CO2 for 60 to 120 min. (4) Load plates to FDSS-7000. The following steps were performed on FDSS-7000. (5) Record fluorescent background (Ex 480 nm, Em 520-560 nm) for 10 s. (6) Add 23 nl/well of compound in DMSO solution. The final titration for each compound was between 0.6 nM and 46 uM. Record agonist response for 210 s. (7) Add 2 ul of stimulation reagent (1X HBSS buffer, 0.1% BSA, 60 nM NPS). Record antagonist response for 140 s. Keywords: MLSMR, MLPCN, NIH Roadmap, qHTS, NCGC, NPS, Neuropeptide S Antagonists

SMILES	Potency
COc1ccc(C2c3c(n(CCc4ccccc4)cnc3=N)Oc3ccc4ccccc4c32)cc1OC (centres undefined)	inconclusive: 27.6 µM [inhibitor, partial curve]
COc1ccc(C2c3c(N)nc(Cc4ccccc4)nc3Oc3ccc4ccccc4c32)cc1OC (centres undefined)	inconclusive: 310 µM [inhibitor, partial curve]
COc1ccc(C2c3c(ncn(CCc4ccccc4)c3=N)Oc3ccc4ccccc4c32)cc1OC (centres undefined)	inconclusive: 9.81 µM [inhibitor, partial curve]
O=C(NCc1ccccc1)Nc1ncnc2c1C(c1ccccc1)c1c(ccc3ccccc13)O2 (centres undefined)	inconclusive: 12.4 µM [inhibitor, partial curve]
COc1ccc(C2c3c(nc(Cc4ccccc4)[nH]c3=O)Oc3ccc4ccccc4c32)cc1OC (centres undefined)	inactive
COc1cccc(C2c3c(ncn(-c4ccc(-c5ccccc5)cc4)c3=N)Oc3ccc4ccccc4c32)c1 (centres undefined)	inactive
COc1ccc(C2c3c(n(Cc4ccccc4)cnc3=N)Oc3ccc4ccccc4c32)cc1OC (centres undefined)	inconclusive: 276 µM [inhibitor, partial curve]
COc1cccc(C2C(C#N)=C(NC(=O)NCc3ccccc3)Oc3ccc4ccccc4c32)c1 (centres undefined)	inactive
N=c1c2c(ccn1CCCCc1ccccc1)Oc1ccc3ccccc3c1C2c1ccccc1 (centres undefined)	inactive
COc1ccc(C2c3ccccc3Oc3ncn(CCN4CCOCC4)c(=N)c32)cc1OC (centres undefined)	active: 0.619 µM
COc1ccc(C2c3c(nc(C)[nH]c3=O)Oc3ccc4ccccc4c32)cc1OC (centres undefined)	inactive
COc1ccc(C2c3c(N)nc(CCc4ccccc4)nc3Oc3ccc4ccccc4c32)cc1OC (centres undefined)	inconclusive: 43.8 µM [inhibitor, partial curve]
Cc1c(C(O)(c2ccccc2)c2ccccc2)[n+]2ccccc2n1C	inconclusive: 44.9 µM [inhibitor, partial curve]
COc1ccc(C2c3c(nc(CCc4ccccc4)[nH]c3=O)Oc3ccc4ccccc4c32)cc1OC (centres undefined)	inconclusive: 22 µM [inhibitor, partial curve]
COc1ccc(C2C3=C(N=CN(CCN4CCOCC4)C3N)Oc3ccccc32)cc1OC (centres undefined)	inactive
COc1ccc2c(c1)Oc1ncn(CCN3CCOCC3)c(=N)c1C2c1ccc(OC)c(OC)c1 (centres undefined)	inconclusive: 8.74 µM [inhibitor, partial curve]
COc1ccc(C2c3c(N)nc(CCCc4ccccc4)nc3Oc3ccc4ccccc4c32)cc1OC (centres undefined)	inconclusive: 19.6 µM [inhibitor, partial curve]
S=P(c1ccccc1)(c1ccccc1)c1nc(CCCc2ccccc2)n2ccccc12	inconclusive: 28.3 µM [inhibitor, partial curve]
Cc1nc2ccccn2c1P(=O)(c1ccccc1)c1ccccc1	inconclusive: 25.2 µM [inhibitor, partial curve]

Reprinted at random: 2 compounds from above.
SMILES	Potency
COc1ccc(C2c3c(n(Cc4ccccc4)cnc3=N)Oc3ccc4ccccc4c32)cc1OC (centres undefined)	inconclusive: 276 µM [inhibitor, partial curve]
COc1ccc(C2C3=C(N=CN(CCN4CCOCC4)C3N)Oc3ccccc32)cc1OC (centres undefined)	inactive
